Library screening results

Data taken from ChEMBL document CHEMBL3988442, “University of Dundee, Small-Polar-MMV Screening Library” (2021).

The filed quantity is “Percent Effect” (%). The controls that fix the scale are not given in the record; negative values are as filed. This is an unselected part of the compounds tested. Two or more numbers in one place are separate tests of the same structure; such repeats can differ widely.

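Viability assay of Plasmodium falciparum sporozoites; the read-out is not stated. The concentration is filed as 10 mM, unlikely as a test dose, so the dose is not known. The record gives no direction; compounds that gave an IC50 in retests scored well above the rest, so higher reads as lower viability. Strong results were mostly tested again. Size under these conditions: about 34,000 compounds, about 280 of them at 50% or above in at least one test.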

| structure | Percent Effect |
|---|---|
| `Cc1ccc(NC(=O)c2cccc(OCc3nnnn3C)c2)nc1` | -3.093 and -4.087 |
| `Cc1cnc(NC2CCc3c(ccc(=O)n3CC3CC3)C2)nc1` (centres undefined) | -0.3552 |
| `[H][C@@]12CC[C@H](Oc3cccc(F)c3)[C@]1([H])CN(C(=O)c1ccnn1C)C2` | 0.03575 |
| `COCC1CN(c2ccc(C)nn2)Cc2cnn(CC3CCOCC3)c21.O=C(O)C(F)(F)F.O=C(O)C(F)(F)F` (centres undefined) | 4.159 |
| `CC(NC(=O)COc1nc(C(C)(C)C)no1)c1ccco1` (centres undefined) | -6.471 |
| `COc1cc(N[C@@H](Cc2ccccc2)C(N)=O)ncn1` | 10.88 |
| `O=C(Cc1ccccc1)N1CCC2(CC(=O)N(c3ccsc3)C2)C1` (centres undefined) | -5.862 |
| `CC(C)C(=O)N1CC2(CCN(CC(C)(C)C)CC2)C1.O=C(O)C(F)(F)F` | 14.2 |
| `CC(C)c1nnc2n1CCN(C(=O)c1ccc3cc[nH]c3c1)C2` | -21.08 |
| `O=C(O)C(F)(F)F.[H][C@@]12CCCO[C@]1([H])[C@H](OCc1cccnc1)CN2C(=O)c1cnccn1` | -10.46 |
| `COCC(=O)N[C@@H]1CN(Cc2c[nH]nc2-c2cccs2)C[C@H]1O` | 3.043 |
| `Cc1cnn(CC(C)NCc2nc(-c3ccco3)no2)c1` (centres undefined) | 5.375 |
| `O=C(O)C(F)(F)F.O=C(O)C(F)(F)F.O=c1cc(Cn2cncn2)nc2n1CCCN(CCN1CCCC1)C2` | 2.847 |
| `Cc1cnn(CC2CN(CC(=O)NCc3ccccn3)CCO2)c1` (centres undefined) | -2.696 |
| `Cc1cnn(CCNCc2cc(C#N)ccc2F)c1` | -2.234 |
| `COC(C)c1noc(CN2CCCNCC2)n1` (centres undefined) | -0.3552 |
| `Cn1ccc(CN2CCC3(CCCN3CC3CC3)CC2)n1.O=C(O)C(F)(F)F.O=C(O)C(F)(F)F` | 11.73 |
| `O=C(C1CCCCC1)N1CCC2(CCCN2CC2CC2)CC1.O=C(O)C(F)(F)F` | 3.307 |
| `Cc1nc(C)n(CC2CCCN(CCc3ccncc3)C2)n1` (centres undefined) | -4.132 |
| `O=C1NCCCCC1NS(=O)(=O)N1CCCCCC1` (centres undefined) | 2.558 |
| `Cc1ccc(-c2cc(CNC(=O)N3CCSCC3)on2)cc1` | 9.443 and -8.661 and 0.04429 |
| `CCc1nccn1C1CCCN(C(=O)c2ccc3[nH]cnc3c2)C1` (centres undefined) | -8.23 |
| `O=C(O)c1ccc(CC2CCN(S(=O)(=O)N3CCOCC3)C2)cc1` (centres undefined) | -11.51 |
| `CCS(=O)(=O)N1CCN(CCn2cccn2)c2nc(C)ccc2C1.O=C(O)C(F)(F)F` | 8.684 |
| `CC(=O)c1cccc(OCCCC(=O)N(C)Cc2cccc(O)c2)c1` | 3.412 |
| `[H][C@@]12CN(C)C[C@]1(C(=O)N(C)C)CCC21CCN(C(=O)NC(C)C)CC1` | 6.899 |
| `Cc1cccc(CN2C[C@@H](C)[C@@]3(CCN(CC(=O)N(C)C)C3=O)C2)c1.O=C(O)C(F)(F)F` | -0.4378 |
| `CC(=O)N1CCOC(c2cc(N3CC(O)C3)nc(C)n2)C1` (centres undefined) | -19.49 |
| `Cc1ccc2c(n1)N(CC(C)C)CCN(S(C)(=O)=O)C2.O=C(O)C(F)(F)F` | -1.07 |
| `O=C(CCCOCc1ccccc1)N1CCCC1c1ccccn1` (centres undefined) | -10.94 |
| `O[C@@H]1CN(Cc2ccncc2)C[C@H]1Oc1ccccc1` | 2.798 |
| `c1ccc(-n2ccc(CN3CCCC3Cn3cccn3)n2)cc1` (centres undefined) | -13.69 |
| `CC1CCc2n[nH]c(C(=O)NCCCc3ccccn3)c2C1` (centres undefined) | -1.963 |
| `CCOCc1cc(CN2CCn3c(CO)nnc3C2)ccc1OC.O=C(O)CC(O)(CC(=O)O)C(=O)O` | -1.779 |
| `N#Cc1ccc(C(=O)NCCCNc2ccc(C(F)(F)F)cn2)cc1` | -2.968 |
| `CCNC(=O)N1CCc2ccc(NC(=O)C(C)c3ccsc3)cc21` (centres undefined) | -11.32 and -23.05 |
| `CCc1n[nH]c(C2CN(C(=O)c3ccc(Cl)cn3)CCO2)n1` (centres undefined) | 1.875 |
| `[H][C@]12CCC[C@@]1(COC)CN(C(=O)N1CCCC1)C2` | 10.53 |
| `CC(C)COC(C)C(=O)NCc1ccc(-n2cncn2)nc1` (centres undefined) | 2.007 |
| `Clc1ccc(-n2cc(CNC3CCc4ncnn4C3)cn2)cc1` (centres undefined) | -18.38 |
| `Cc1cc(OCC(=O)NCc2ccc(F)cc2)nnc1C` | -17.65 |
| `Cl.c1ccc(-c2cc(CNCCCC3CCOC3)c3nnnn3c2)cc1` (centres undefined) | -4.775 |
| `O=C(NCCCNc1ccc(C(F)(F)F)cn1)c1ccc(F)cc1` | -2.024 |
| `O=C(Cc1cccc(F)c1)NC1CCCc2cn[nH]c21` (centres undefined) | -10.26 |
| `CC1CCN(c2ccnc3ccc(Br)cc23)CC1` | -2.525 |
| `COc1ccc(C(=O)N(C)Cc2cc(C)on2)c(OC)c1` | 2.662 |
| `Cl.O=C(O)C1(Cc2cccc(-c3cccs3)c2)CCCNC1` (centres undefined) | 10.92 |
| `CCOC(=O)NC(CNC(=O)CCc1ccccn1)CC(C)C` (centres undefined) | -10.84 |
| `[H][C@@]12COC[C@]1(CNS(C)(=O)=O)CN(C(=O)CC1CCCC1)C2` | 11.26 |
| `CCS(=O)(=O)N1CCN(CCOC)c2ncccc2C1` | 17.33 |
| `COc1cccc(S(=O)(=O)NC(=O)COC2CCCCC2)c1` | -7.807 |